Data from the supplement of paper PMC10689618.
The list shows a part of the results. Many values rest on one well or one pass, so single values are uncertain.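 Labelled rat cortical synaptosomes were engulfed by primary human fetal astrocytes. Engulfment equaled a red/green ratio, corrected for calcein live-cell signal and normalized to the plate median. Compounds were toxic when calcein dropped over 30%, and reduced phagocytosis when below 70% of the median above 5 µM.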

Test system: Human fetal astrocytes
Test: loss of total cells relative to no-compound high-control median (toxicity); higher = more toxic (fewer cells)
Conditions: 22.22 µM; 24 h

SMILES	loss of total cells
CN(C)CCc1c[nH]c2ccc(Cn3cncn3)cc12	-5.3%
O=Cc1ccccc1O[C@@H]1O[C@H](CO)[C@@H](O)[C@H](O)[C@H]1O	-7.4%
CS(=O)(=O)OCCCCOS(C)(=O)=O [GT 41 X 149 Mablin CB 2041 G.T. 41 GT 2041 Mileran Myleran]	19.3%
C1CCC(C(CC2CCCCN2)C2CCCCC2)CC1 (stereo not drawn)	37.1%
NCCC(=O)c1ccccc1N	0%
Nc1ccc(S(=O)(=O)Nc2ncccn2)cc1	21.6%
CNc1ccccc1C(=O)N1CCc2c([nH]c3ccccc23)C1=O	0%
CN(C)CCOC(=O)C(c1ccccc1)C1(O)CCCC1 (stereo not drawn)	22.2%
CC(C)/C(O)=C1/C(=O)O[C@@H](c2ccoc2)[C@]2(C)C(O)[C@@H](O)[C@@]34OC5(C)OC67CC(C)(C(O)[C@]6(O)[C@@H](O)[C@]3(O5)C12)[C@H](CC(=O)O)[C@]74C (stereo partly drawn)	14.4%
CC1Cc2ccccc2N1NC(=O)c1ccc(Cl)c(S(N)(=O)=O)c1 (stereo not drawn)	-19.8%
O=C(/C=C/C=C/c1ccc2c(c1)OCO2)N1CCCCC1	-6.4%
C1N2CN3CN1CN(C2)C3	-20.4%
CC1(C)[C@@H](O)CC[C@]2(C)[C@H]3C(=O)C=C4[C@H]5C[C@@](C)(C(=O)O)CC[C@]5(C)CC[C@@]4(C)[C@]3(C)CC[C@@H]12 [18alpha-GLYCYRRHETINIC ACID]	16.3%
COc1ccc([C@H]2Oc3cc(OC)cc(OC)c3C[C@H]2O)cc1	-4.1%
O=c1[nH]cnc2nc[nH]c12	11.1%
CC[C@H]1OC(=O)C[C@@H](O)[C@H](C)[C@@H](O[C@@H]2O[C@H](C)[C@@H](O)[C@H](N(C)C)[C@H]2O)[C@@H](CCN2C[C@H](C)C[C@H](C)C2)C[C@@H](C)C(=O)/C=C/C(C)=C/[C@@H]1CO[C@@H]1O[C@H](C)[C@@H](O)[C@@H](OC)[C@H]1OC	2.2%
C[C@H]1O[C@@H](O[C@H]2[C@@H](O)C[C@H](O[C@H]3[C@@H](O)C[C@H](O[C@H]4CC[C@@]5(C)[C@H](CC[C@@H]6[C@@H]5C[C@@H](O)[C@]5(C)[C@@H](C7=CC(=O)OC7)CC[C@]65O)C4)O[C@@H]3C)O[C@@H]2C)C[C@H](O)[C@@H]1O	42.2%
CCCCOC(=O)c1ccc(O)cc1	-0.4%
COc1ccc(/C=C/C(=O)O)cc1OC	-13%
Cc1cc(-n2c(=O)[nH]c(=O)n(C)c2=O)ccc1Oc1ccc(SC(F)(F)F)cc1	3.4%

SMILES	loss of total cells
COc1ccc(-c2cc(=O)c3c(O)c(OC)c(OC)c(OC)c3o2)cc1	-3%
COc1ccc2oc3ccccc3c(=O)c2c1	5.3%
Cc1cc2nc3c(=O)[nH]c(=O)nc-3n(C[C@H](O)[C@H](O)[C@H](O)CO)c2cc1C	21%
C#C[C@]1(OC(C)=O)CC[C@H]2[C@@H]3CCC4=C[C@@H](OC(C)=O)CC[C@@H]4[C@H]3CC[C@@]21C	6.3%
NCCCC(=O)O	2.3%
CCCCS(=N)(=O)CCC(N)C(=O)O (racemic) [DL-Buthionine-[S,R]-sulfoximine]	12.6%
CC(=O)O[C@@H]1CC(=O)[C@@]2(C)C(CC(=O)[C@]3(C)C2CC[C@@]2(C)[C@H](c4ccoc4)OC(=O)C4OC423)C1(C)C (stereo partly drawn)	33.7%
COc1cc(C(C)=O)cc(OC)c1O	7.6%
NCC(O)CC(=O)O (stereo not drawn)	25%
CC(=O)O[C@H]1CC[C@@]2(C)C(=CC=C3[C@@H]4CC[C@H]([C@H](C)/C=C/[C@H](C)C(C)C)[C@@]4(C)CC[C@@H]32)C1	-7%
C[C@H](CCC(=O)O)[C@H]1CC[C@H]2[C@@H]3[C@H](O)C[C@@H]4C[C@H](O)CC[C@]4(C)[C@H]3CC[C@]12C	38.6%
CC(=O)[C@@]1(O)CC[C@H]2[C@@H]3C=C(Cl)C4=CC(=O)[C@@H]5C[C@@H]5[C@]4(C)[C@H]3CC[C@@]21C	15.2%
COc1cc(-c2cc(=O)c3c(O)c(OC)c(OC)c(OC)c3o2)cc(OC)c1OC	3.7%
OC[C@H]1O[C@@H](n2cnc3c(NCc4ccco4)ncnc32)[C@H](O)[C@@H]1O	25.2%
C=C1C2CC[C@@]3(C)[C@H](c4ccoc4)OC(=O)C[C@]13O[C@H]1CC(=O)C(C)(C)[C@H](C(O)C(=O)OC)[C@@]21C (stereo partly drawn)	10.7%
CCN(CC)Cc1cc(Nc2ccnc3cc(Cl)ccc23)ccc1O	24.4%
COc1ccc(-c2cc(=O)c3c(OC)cc(OC)cc3o2)cc1	5.2%
Cc1cc(=O)n(-c2ccccc2)n1C	12.5%
COc1ccc(-c2cc(=O)c3c(O)cc(O)cc3o2)cc1	-11.5%

Test system: Human fetal astrocytes
Test: synaptosome phagocytosis (pHrodo/calcein intensity ratio) relative to plate median of data wells; higher = more phagocytosis
Conditions: 1.39 µM; 24 h

SMILES	synaptosome phagocytosis
CN(C)CCc1c[nH]c2ccc(Cn3cncn3)cc12	71.6%
O=Cc1ccccc1O[C@@H]1O[C@H](CO)[C@@H](O)[C@H](O)[C@H]1O	130%
CS(=O)(=O)OCCCCOS(C)(=O)=O [GT 41 X 149 Mablin CB 2041 G.T. 41 GT 2041 Mileran Myleran]	89.2%
C1CCC(C(CC2CCCCN2)C2CCCCC2)CC1 (stereo not drawn)	42.8%
NCCC(=O)c1ccccc1N	70.7%
Nc1ccc(S(=O)(=O)Nc2ncccn2)cc1	94.5%
CNc1ccccc1C(=O)N1CCc2c([nH]c3ccccc23)C1=O	87.2%
CN(C)CCOC(=O)C(c1ccccc1)C1(O)CCCC1 (stereo not drawn)	102%
CC(C)/C(O)=C1/C(=O)O[C@@H](c2ccoc2)[C@]2(C)C(O)[C@@H](O)[C@@]34OC5(C)OC67CC(C)(C(O)[C@]6(O)[C@@H](O)[C@]3(O5)C12)[C@H](CC(=O)O)[C@]74C (stereo partly drawn)	99.5%
CC1Cc2ccccc2N1NC(=O)c1ccc(Cl)c(S(N)(=O)=O)c1 (stereo not drawn)	90.1%
O=C(/C=C/C=C/c1ccc2c(c1)OCO2)N1CCCCC1	79.1%
C1N2CN3CN1CN(C2)C3	106%
CC1(C)[C@@H](O)CC[C@]2(C)[C@H]3C(=O)C=C4[C@H]5C[C@@](C)(C(=O)O)CC[C@]5(C)CC[C@@]4(C)[C@]3(C)CC[C@@H]12 [18alpha-GLYCYRRHETINIC ACID]	124%
COc1ccc([C@H]2Oc3cc(OC)cc(OC)c3C[C@H]2O)cc1	60.2%
O=c1[nH]cnc2nc[nH]c12	115%
CC[C@H]1OC(=O)C[C@@H](O)[C@H](C)[C@@H](O[C@@H]2O[C@H](C)[C@@H](O)[C@H](N(C)C)[C@H]2O)[C@@H](CCN2C[C@H](C)C[C@H](C)C2)C[C@@H](C)C(=O)/C=C/C(C)=C/[C@@H]1CO[C@@H]1O[C@H](C)[C@@H](O)[C@@H](OC)[C@H]1OC	124%
C[C@H]1O[C@@H](O[C@H]2[C@@H](O)C[C@H](O[C@H]3[C@@H](O)C[C@H](O[C@H]4CC[C@@]5(C)[C@H](CC[C@@H]6[C@@H]5C[C@@H](O)[C@]5(C)[C@@H](C7=CC(=O)OC7)CC[C@]65O)C4)O[C@@H]3C)O[C@@H]2C)C[C@H](O)[C@@H]1O	55.8%
CCCCOC(=O)c1ccc(O)cc1	117%
COc1ccc(/C=C/C(=O)O)cc1OC	84.2%
Cc1cc(-n2c(=O)[nH]c(=O)n(C)c2=O)ccc1Oc1ccc(SC(F)(F)F)cc1	79.8%

A stretch taken from the entries so far:
SMILES	synaptosome phagocytosis
CN(C)CCOC(=O)C(c1ccccc1)C1(O)CCCC1 (stereo not drawn)	102%
CC(C)/C(O)=C1/C(=O)O[C@@H](c2ccoc2)[C@]2(C)C(O)[C@@H](O)[C@@]34OC5(C)OC67CC(C)(C(O)[C@]6(O)[C@@H](O)[C@]3(O5)C12)[C@H](CC(=O)O)[C@]74C (stereo partly drawn)	99.5%

Next part:

SMILES	synaptosome phagocytosis
COc1ccc(-c2cc(=O)c3c(O)c(OC)c(OC)c(OC)c3o2)cc1	110%
COc1ccc2oc3ccccc3c(=O)c2c1	100%
Cc1cc2nc3c(=O)[nH]c(=O)nc-3n(C[C@H](O)[C@H](O)[C@H](O)CO)c2cc1C	138%
C#C[C@]1(OC(C)=O)CC[C@H]2[C@@H]3CCC4=C[C@@H](OC(C)=O)CC[C@@H]4[C@H]3CC[C@@]21C	111%
NCCCC(=O)O	89%
CCCCS(=N)(=O)CCC(N)C(=O)O (racemic) [DL-Buthionine-[S,R]-sulfoximine]	82.2%
CC(=O)O[C@@H]1CC(=O)[C@@]2(C)C(CC(=O)[C@]3(C)C2CC[C@@]2(C)[C@H](c4ccoc4)OC(=O)C4OC423)C1(C)C (stereo partly drawn)	80.1%
COc1cc(C(C)=O)cc(OC)c1O	64.4%
NCC(O)CC(=O)O (stereo not drawn)	94.7%
CC(=O)O[C@H]1CC[C@@]2(C)C(=CC=C3[C@@H]4CC[C@H]([C@H](C)/C=C/[C@H](C)C(C)C)[C@@]4(C)CC[C@@H]32)C1	97.3%
C[C@H](CCC(=O)O)[C@H]1CC[C@H]2[C@@H]3[C@H](O)C[C@@H]4C[C@H](O)CC[C@]4(C)[C@H]3CC[C@]12C	91.5%
CC(=O)[C@@]1(O)CC[C@H]2[C@@H]3C=C(Cl)C4=CC(=O)[C@@H]5C[C@@H]5[C@]4(C)[C@H]3CC[C@@]21C	97.2%
COc1cc(-c2cc(=O)c3c(O)c(OC)c(OC)c(OC)c3o2)cc(OC)c1OC	94.3%
OC[C@H]1O[C@@H](n2cnc3c(NCc4ccco4)ncnc32)[C@H](O)[C@@H]1O	111%
C=C1C2CC[C@@]3(C)[C@H](c4ccoc4)OC(=O)C[C@]13O[C@H]1CC(=O)C(C)(C)[C@H](C(O)C(=O)OC)[C@@]21C (stereo partly drawn)	97.3%
CCN(CC)Cc1cc(Nc2ccnc3cc(Cl)ccc23)ccc1O	85.3%
COc1ccc(-c2cc(=O)c3c(OC)cc(OC)cc3o2)cc1	77.7%
Cc1cc(=O)n(-c2ccccc2)n1C	118%
COc1ccc(-c2cc(=O)c3c(O)cc(O)cc3o2)cc1	110%

Three of these compounds in a different format.
COc1cc(C(C)=O)cc(OC)c1O
  synaptosome phagocytosis: 64.4%
NCC(O)CC(=O)O (stereo not drawn)
  synaptosome phagocytosis: 94.7%
CC(=O)O[C@H]1CC[C@@]2(C)C(=CC=C3[C@@H]4CC[C@H]([C@H](C)/C=C/[C@H](C)C(C)C)[C@@]4(C)CC[C@@H]32)C1
  synaptosome phagocytosis: 97.3%
